From PMC7716890 (Clinical Pharmacokinetics, 2020)
“Also recorded” adds a separate entry of the source. Read-outs that look alike come from different tables or passages of the source.

Tests used:
[1] = cocktail with cimetidine vs cocktail alone
[2] = not given; remark: listed apart in the source
[3] = cocktail (furosemide 1 mg) with probenecid vs cocktail alone
[4] = furosemide 40 mg with probenecid vs alone

## NS(=O)(=O)c1cc(C(=O)O)c(NCc2ccco2)cc1Cl [Furosemide, furosemide]
[1]
  effect of cimetidine on systemic exposure: no effect; also recorded: no inhibition
Cocktail with single-dose rifampin vs cocktail alone
  increase of Cmax: 35%
Cocktail with single-dose verapamil vs cocktail alone
  effect of verapamil on systemic exposure: no effect
[2]; [3]
  increase of AUC0–tz: 172%
  increase of Cmax: 23%
[2]; [4]
  increase of AUC0–tz: 203%
  increase of Cmax: 47%
